# Patent publication US5225436A, “Aryl substituted naphthalene derivatives” (Schering Corporation, priority 1991, dated 1993)
# At least one read-out could not be matched to a standard name with certainty.
# System: anaphylactic bronchospasm (antigen-induced SRS-A mediated bronchoconstriction)
# Assay: Inhibition of anaphylactic bronchospasm in sensitized guinea pigs
# Type: in vivo, guinea pig
# Conditions: Dose 10 mpk, iv; E,G,P,L=OH; J=H; db yes], 10 mg/kg
# Procedure: The anti-allergy method of this invention is identified by tests which measure a compound's inhibition of anaphylactic bronchospams-in sensitized guinea pigs having antigen-induced SRS-A mediated bronchoconstriction. Allergic bronchospams was measured in actively sensitized guinea pigs by a modification of the procedure of Konzett and Rossler, Arch. Exptl. Pathol. Pharmakol., 194, pp. 71-74 (1940). Male Hartley guinea pigs were sensitized with 5 mg ovalbumin injected ip and 5 mg injected sc in 1 ml saline on day 1 and 5 mg ovalbumin injected ip on day 4. The sensitized animals were used 3-4 weeks later. To measure anaphylactic bronchospasm, sensitized guinea pigs were fasted overnight and the following morning were anesthetized with 0.9 ml/kp ip dialurethane. The trachea and jugular vein were cannulated and the animals were ventilated by a Harvard rodent respirator. A side arm to the tracheal cannula was connected to a Harvard pressure transducer to obtain a continuous measure of intratracheal pressure. An increase in intratracheal pressure was taken as a measure of bronchoconstriction. Each guinea pig was injected iv with 1 mg/kg propranolol, 5 mg/kg indomethacin and 2 mg/kg mepyramine given together in a volume of 1 mg/kg. […] Bronchoconstriction was measured as the peak increase in intratracheal pressure occurring within 15 minutes after antigen challenge.
smiles,measurement,value
"CC1(C)C(c2ccc(O)c(O)c2)=CC(=O)c2c(O)cc(O)cc21 [3-(3,4-dihydroxyphenyl)-6,8-dihydroxy-4,4-dimethyl-1(4H)-naphthalenone]",% Inhibition of anaphylactic bronchospasm,26%
